Values from PubChem BioAssay AID504786 (Drosophila RNAi Screening Center, 2011).
The deposit covers about 21,000 reagents; shown is an unselected part of those with a known target gene and a result. 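Primary screen; positive scores mean lost reporter signal, so the sign may be inverted from the usual convention.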 The numbers tell different reagents against one gene apart. No sequences are given here.

- Test: 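Positive regulators of HIF-driven reporter output in Drosophila cells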 (primary screen)
- Cells: Drosophila S2 cells with a stable HIF luciferase reporter
- Reagents: long dsRNA against Drosophila genes, about 0.2 µg dsRNA per well of a 384-well plate
- Time to read-out: three days of knock-down, then 20 h of DFO before reading
- Treatment: desferrioxamine (DFO) at 100 µM, an iron chelator that mimics hypoxia, for 20 h
- Read-out: 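Firefly luciferase driven by the mouse ldh-a hypoxia-response element, measured after 20 h of 100 µM DFO; z-scores per plate, higher means more signal lost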
- Direction: z-score: higher = stronger loss of HIF reporter signal

With Rbcn-3A (Rabconnectin-3A), how do the results read?
z-score, replicate 1: -0.2; z-score, replicate 2: -0.3

How did the screen score CG12824?
z-score, replicate 1: -0.3; z-score, replicate 2: -0.2

What is on record for Akr1B (Aldo-keto reductase 1B)?
z-score, replicate 1: -0.4; z-score, replicate 2: -0.2

For CG15445, how do the results read?
z-score, replicate 1: -0.3; z-score, replicate 2: 1.2

With CG13989, how do the results read?
z-score, replicate 1: -0.3; z-score, replicate 2: -0.1

Quoted from above for reference:
Rbcn-3A (Rabconnectin-3A) | z-score, replicate 1: -0.2; z-score, replicate 2: -0.3
CG12824 | z-score, replicate 1: -0.3; z-score, replicate 2: -0.2
Akr1B (Aldo-keto reductase 1B) | z-score, replicate 1: -0.4; z-score, replicate 2: -0.2

More results follow.
How did the screen score CG33523?
z-score, replicate 1: -0.4; z-score, replicate 2: 0.4

How did the screen score eg (eagle)?
z-score, replicate 1: -0.2; z-score, replicate 2: -0.6

With CG31156 #1, what was measured?
z-score, replicate 1: -0.3; z-score, replicate 2: -0.6

How did the screen score CG31156 #2?
z-score, replicate 1: 0; z-score, replicate 2: 0.8

For ppk26 (pickpocket 26), what does the deposit list?
z-score, replicate 1: -0.2; z-score, replicate 2: 1.1

With Mccc2 (Methylcrotonoyl-CoA carboxylase 2), what does the deposit list?
z-score, replicate 1: -0.2; z-score, replicate 2: -0.2

How did the screen score Prp18?
z-score, replicate 1: 0.4; z-score, replicate 2: 0.8

How did the screen score CG7025?
z-score, replicate 1: 0.1; z-score, replicate 2: -0.6

With CG1941, what was measured?
z-score, replicate 1: -0.3; z-score, replicate 2: -0.3

For Nazo, what does the deposit list?
z-score, replicate 1: -0.1; z-score, replicate 2: 0.1

With Xxylt (Xyloside xylosyltransferase), what was measured?
z-score, replicate 1: -0.2; z-score, replicate 2: -0.3
